These results are taken from the supplement of paper PMC8426693.

This is one part of the list.

The subject of the experiment is SARS-CoV-2 attenuator hairpin (att HP) RNA. Put plainly: NMR binding call after quantification (hit when 2 of 3 NMR criteria are met) (binary (1 = binding, 0 = not binding)); higher = binding. The following applies: RNA concentration 10 µM; fragment concentration 200 µM; 293 K.
As for `CC(=O)Nc1cccc2nonc12`, the NMR binding call is 0.

`CCNc1ccc(C#N)cn1` returned an NMR binding call of 0. For `CC1CCC(C(=O)N2CCC=C(F)C2)O1` (stereo not given), the NMR binding call came to 0. Regarding `CC(C)NCc1ccc(N(C)C)cc1`, the NMR binding call came out at 0. Consider `Cc1cc(C(=O)NCc2cccs2)no1`, for which the NMR binding call came to 0.

The compound `CCOC(=O)NCc1ccccc1` gave an NMR binding call of 0.

For the compound `CS(=O)(=O)N1CCCC(C(=O)O)C1` (stereo not given), the NMR binding call worked out at 0. As for `CNC(=O)c1nc2ccccc2c(=O)[nH]1`, the figure is 0; as for `CC(C)(C)C1CCN(C(=O)c2ccccc2)CC1`, 0.

The compound `CC(=O)NC1CNc2ccccc2C1` (stereo not given) showed an NMR binding call of 0. As to `CN1CCC(Oc2cccc(F)c2)C1=O` (stereo not given), the NMR binding call turned out to be 0.

`CNC1CCN(c2ccccc2F)C1=O.Cl` (stereo not given) gave an NMR binding call of 0. As for `CC(=O)NCCN1CCCCCC1`, the figure is 0.

`CCNC(=O)c1c[nH]nn1` returned an NMR binding call of 0. For the compound `CC(=O)NCC1(O)CCCC1`, the NMR binding call came to 0.

Regarding `CC(=O)Nc1ccc(CN2CCOCC2)cc1`, the NMR binding call worked out at 0. Turning to `O=C(O)Cc1ccc(-c2ccccc2)cc1`, the NMR binding call is 0. Take `Cc1noc(NC(=O)CC2CCCC2)n1`: the NMR binding call worked out at 0.

The compound `COc1ccc(C(=O)C2CCNCC2)cc1` displayed an NMR binding call of 0. `NC(=O)c1ccc(OCc2ccccc2)cc1` gave an NMR binding call of 0. Turning to `O=C(c1ccc2c(c1)OCO2)N1CCCCCC1`, the NMR binding call was 0. On to `CN(C)C(=O)OCCn1ccnc1`, for which the NMR binding call was 0.

`CC(C)NC(=O)c1ccc2ccccc2n1` had an NMR binding call of 0. The compound `CCC(=O)Nc1nc(C)cs1` returned an NMR binding call of 0. Regarding `Cc1ccc(NC(=O)C2CCCO2)nc1` (stereo not given), the NMR binding call is 0. For `NC(=O)c1ccnc(NC2CC=CC2)c1`, the NMR binding call came out at 0. As for `Cl.NC1CCN(S(=O)(=O)c2ccccc2)C1` (stereo not given), the figure is 0; as for `O=C(NCc1ccco1)Nc1ccc(F)cc1`, 0. With `Cc1cc(N(C)C2CC(O)C2)nc(C)n1` (stereo not given), the NMR binding call was 0. Consider `CNC1CCCN(c2ccccc2)C1=O` (stereo not given), for which the NMR binding call is 0.

`O=C(Nc1ccc(O)cc1)N1CCOCC1` gave an NMR binding call of 0. Next, `O=c1[nH]cc(N2CCCCC2)c(=O)[nH]1`: 0.

The compound `COC(=O)CNC(=O)C1CCCCC1` registered an NMR binding call of 0. The compound `Cn1nccc1C(=O)NCc1cccs1` came in with an NMR binding call of 0.

In the case of `Cc1nn(C)c(C)c1NC(=O)CC#N`, the NMR binding call turned out to be 0. Consider `CC(C)C(=O)Nc1ccc(N2CCCCC2)cc1`, for which the NMR binding call was 0. Regarding `CC(=O)Nc1ccccc1OCc1ccccc1`, the NMR binding call was determined as 0. With `O=C(COc1ccccc1)Nc1cccc(F)c1`, the NMR binding call turned out to be 0. With `O=C(NCc1nc2ccccc2[nH]1)c1ccco1`, the NMR binding call is 0.

For `CCOc1cccc(C(=O)Nc2nnn(C)n2)c1`, the NMR binding call came to 0.
